Measured values reported in PubChem BioAssay AID216 (DTP/NCI, 2004).
The list does not hold the whole screen: it covers a few groups of compounds. Not every dose and run of a compound is shown. T/C is the treated group as % of the vehicle group. Some doses have a count of surviving animals in place of a T/C: the source holds a T/C of zero for them, seemingly a mark for toxic or unscored doses. Some doses without a T/C left all or most animals alive at the check, yet need not have been tolerated: the source hardly ever lists a survival T/C far under the control, and the zero likely stands for such cases as well. Counts of survivors are from the toxicity check (mostly the fifth day) where no day follows; animals may have died later. Schedules are NCI's codes, read here as Q, the interval in days (D) or hours (H), X, the number of doses. Some schedules carry Z or #; the key to these is not given. Some entries were tested several times; the results are listed from low to high. For survival time, the PubChem record calls one and a half times the control and up active, and a quarter to a half above the control has no call in these data; cut-offs in other NCI protocols can differ. Some T/C values are followed by the survivors on the day toxicity was checked, most often the fifth; where neither a count nor a note follows, no animal had died by that day.

Tested on: BDF1 mice, P288 leukemia ip, survival T/C
Experiment: NCI In Vivo Anticancer Drug Screen. Data for tumor model P288 Lymphocytic Leukemia (intraperitoneal) in B6D2F1 (BDF1) mice
Conditions: T/C endpoint: survival time, mean or median, higher T/C = longer survival
Protocol: The antitumor activity of compounds was measured in mice bearing transplantable tumors. Survival or tumor size were measured and the results are expressed as the measurement made in the treated group (T) divided by the measurement made in the vehicle treated control group (C). The tumor model used in this assay is P288 Lymphocytic Leukemia (intraperitoneal) in B6D2F1 (BDF1) mice

[1] = dose: 1.0 mg/kg/injection, schedule: Q01DX Z (ip), vehicle: carboxymethylcellulose (CMC)
[2] = dose: 2.0 mg/kg/injection, schedule: Q01DX Z (ip), vehicle: carboxymethylcellulose (CMC)

Cc1[nH]c(=O)[nH]c(=O)c1N(CCCl)CCCl
T/C (dose: 0.06 mg/kg/injection, schedule: Q01DX Z (ip), vehicle: carboxymethylcellulose (CMC)): 104 % of control | T/C (dose: 0.12 mg/kg/injection, schedule: Q01DX Z (ip), vehicle: carboxymethylcellulose (CMC)): 106 % of control | T/C (dose: 0.25 mg/kg/injection, schedule: Q01DX Z (ip), vehicle: carboxymethylcellulose (CMC)): 97 [5 of 6 alive] and 106 % of control | T/C (dose: 0.5 mg/kg/injection, schedule: Q01DX010 (ip), vehicle: saline): 112 % of control | T/C (dose: 0.5 mg/kg/injection, schedule: Q01DX Z (ip), vehicle: carboxymethylcellulose (CMC)): 92 [4 of 6 alive] and 128 % of control | T/C (dose: 1.0 mg/kg/injection, schedule: Q01DX010 (ip), vehicle: saline): 218 % of control | T/C [1]: 121 % of control | survivor count [1]: 3 of 6 | T/C (dose: 2.0 mg/kg/injection, schedule: Q01DX010 (ip), vehicle: saline): 156 % of control | T/C [2]: 144 % of control | survivor count [2]: 2 of 6 | T/C (dose: 4.0 mg/kg/injection, schedule: Q01DX010 (ip), vehicle: saline): 100 % of control | T/C (dose: 4.0 mg/kg/injection, schedule: Q01DX Z (ip), vehicle: carboxymethylcellulose (CMC)): 172 % of control

CN(N=O)C(=N)N[N+](=O)[O-]
T/C (dose: 1.18 mg/kg/injection, schedule: Q01DX Z (ip), vehicle: carboxymethylcellulose (CMC)): 86 % of control | survivor count (dose: 2.35 mg/kg/injection, schedule: Q01DX Z (ip), vehicle: carboxymethylcellulose (CMC)): 6 of 6 | T/C (dose: 4.7 mg/kg/injection, schedule: Q01DX Z (ip), vehicle: carboxymethylcellulose (CMC)): 98 % of control | T/C (dose: 8.0 mg/kg/injection, schedule: Q01DX010 (ip), vehicle: saline): 125 and 128 % of control | T/C (dose: 9.4 mg/kg/injection, schedule: Q01DX Z (ip), vehicle: carboxymethylcellulose (CMC)): 91 and 117 % of control | T/C (dose: 16.0 mg/kg/injection, schedule: Q01DX010 (ip), vehicle: saline): 125 and 150 % of control | T/C (dose: 18.75 mg/kg/injection, schedule: Q01DX Z (ip), vehicle: carboxymethylcellulose (CMC)): 86 % of control | T/C (dose: 32.0 mg/kg/injection, schedule: Q01DX010 (ip), vehicle: saline): 106 and 128 % of control | T/C (dose: 37.5 mg/kg/injection, schedule: Q01DX Z (ip), vehicle: carboxymethylcellulose (CMC)): 96 % of control | survivor count (dose: 64.0 mg/kg/injection, schedule: Q01DX010 (ip), vehicle: saline): 0 of 6 and 3 of 6 | survivor count (dose: 75.0 mg/kg/injection, schedule: Q01DX Z (ip), vehicle: carboxymethylcellulose (CMC)): 5 of 6

CC[C@H](C)[C@@H]1NC(=O)/C(=C(\C)O)C1=O
T/C (dose: 3.1 mg/kg/injection, schedule: Q01DX Z (ip), vehicle: water): 89 % of control | T/C (dose: 6.25 mg/kg/injection, schedule: Q01DX Z (ip), vehicle: water): 103 % of control | T/C (dose: 12.5 mg/kg/injection, schedule: Q01DX Z (ip), vehicle: water): 90 % of control | T/C (dose: 25.0 mg/kg/injection, schedule: Q01DX Z (ip), vehicle: water): 106 % of control | T/C (dose: 50.0 mg/kg/injection, schedule: Q01DX Z (ip), vehicle: water): 122 % of control [5 of 6 alive] | survivor count (dose: 100.0 mg/kg/injection, schedule: Q01DX Z (ip), vehicle: water): 3 of 6 | survivor count (dose: 200.0 mg/kg/injection, schedule: Q01DX Z (ip), vehicle: water): 0 of 6

NC1CCCCC1.O=P(O)(N(CCCl)CCCl)N1CC1
survivor count (dose: 1.25 mg/kg/injection, schedule: Q01DX010 (ip), vehicle: saline): 6 of 6 | T/C (dose: 2.5 mg/kg/injection, schedule: Q01DX010 (ip), vehicle: saline): 95 and 110 % of control | T/C (dose: 5.0 mg/kg/injection, schedule: Q01DX010 (ip), vehicle: saline): 121 and 125 % of control | T/C (dose: 10.0 mg/kg/injection, schedule: Q01DX010 (ip), vehicle: saline): 130 and 152 % of control | T/C (dose: 20.0 mg/kg/injection, schedule: Q01DX010 (ip), vehicle: saline): 184 % of control
